Data taken from article PMC12321133, “scFv intrabody targeting wildtype TDP-43 presents protective effects in a cellular model of TDP-43 proteinopathy” (PLOS One, 2025).
These are yes or no findings as the source states them, for the method shown. Some entries that bind do so weakly or less than the wild type. Tags and fused reporters may be left off the sequences shown.

The chains behind the UniProt entries cited, without tags or fusion partners.
UniProt Q13148: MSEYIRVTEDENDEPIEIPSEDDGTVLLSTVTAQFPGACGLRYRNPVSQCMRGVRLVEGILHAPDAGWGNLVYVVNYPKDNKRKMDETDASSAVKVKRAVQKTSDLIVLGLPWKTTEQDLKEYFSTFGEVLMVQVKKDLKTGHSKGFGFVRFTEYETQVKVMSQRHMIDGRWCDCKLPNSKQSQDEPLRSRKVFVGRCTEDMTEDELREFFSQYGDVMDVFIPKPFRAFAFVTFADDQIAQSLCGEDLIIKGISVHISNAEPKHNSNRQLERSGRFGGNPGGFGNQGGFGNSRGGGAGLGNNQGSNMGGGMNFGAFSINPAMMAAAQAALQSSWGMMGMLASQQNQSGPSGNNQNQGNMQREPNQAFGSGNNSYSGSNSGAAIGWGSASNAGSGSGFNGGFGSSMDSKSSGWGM

Key:
[1] = target: GFP-wtTDP-43-6xHis (human) (UniProt Q13148); assay: ELISA; monoclonal phage ELISA: plates coated with 1.0 µg/mL GFP-6xHis or GFP-wtTDP-43-6xHis; 50 µL phage culture supernatant (TG1, KM13 helper phage) in MPBS, 1 h at RT; detected with HRP-conjugated anti-M13 antibody, absorbance at 450 nm; only the target purified
[2] = target: commercial recombinant human full-length wtTDP-43 (Abcam, ab224788) (human) (UniProt Q13148); assay: ELISA; indirect ELISA: wells coated overnight at 4 °C with commercial human wtTDP-43 at 1 µg/mL in PBS; purified scFv at 1, 5 or 10 µg/mL, 1 h at RT; detected with HRP-conjugated anti-6xHis antibody, absorbance at 450 nm; both purified

| Binder | binding [1] | binding [2] |
| --- | --- | --- |
| scFv B1 displayed on M13 phage (fused to pIII) (scFv) scFv: MAEVQLVESGGSLVKPGGSLRLSCAASGFTFSNYDMNWVRQAPGKGLEWISDIDGSSRNIYYADFVKGRFTISRDNATNSLYLQMNSLRAEDTAVYYCVRSSYYDNGMDVWGRGTLVTVSSGGGGSGGGGSGGGGSQSVLTQPASVSGSPGQSITISCAGTSSDVGGYDGVSWYQQHPGKAPKLMIYYDSYRPSGVSNRFSGSKSGNTASLTISGLQAEDEADYYCSSYTYYSTRVFGGGTKLAVLG | binds | – |
| scFv D7 displayed on M13 phage (fused to pIII) (scFv) scFv: MAEVQLVESGGSLVKPGGSLRLSCAASGFTFSNYYMNWVRQAPGKGLEWISDIYGSSRYISYADFVKGRFTISRDNATNSLYLQMNSLRAEDTAVYYCVRSSSNDGGGMDVWGRGTLVTVSSGGGGSGGGGSGGGGSQSVLTQPASVSGSPGQSITISCAGTSSDVGGNNYVSWYQQHPGKAPKLMIYYDSYRPSGVSNRFSGSKSGNTASLTISGLQAEDEADYYCSSYTYSSTRVFGGGTKLAVLG | binds | – |
| scFv B1, purified (c-myc and 6xHis tags) (scFv, VH of scFv B1 as printed; linker of the HuscI library between VH and VL; VL of scFv B1; Selected from the human synthetic HuscI library; The scFv was moved as an NcoI-NotI fragment from pHEN-HuscI into pET-23NN, which adds c-myc and 6xHis at the 3' end; source: E. coli BL21(DE3)pLysS, pET-23NN vector, purified (Ni-NTA, dialysed in MilliQ water); not shown: c-myc, C-terminal, kept; His6, …) scFv: MAEVQLVESGGSLVKPGGSLRLSCAASGFTFSNYDMNWVRQAPGKGLEWISDIDGSSRNIYYADFVKGRFTISRDNATNSLYLQMNSLRAEDTAVYYCVRSSYYDNGMDVWGRGTLVTVSSGGGGSGGGGSGGGGSQSVLTQPASVSGSPGQSITISCAGTSSDVGGYDGVSWYQQHPGKAPKLMIYYDSYRPSGVSNRFSGSKSGNTASLTISGLQAEDEADYYCSSYTYYSTRVFGGGTKLAVLG | – | binds |
| scFv D7, purified (c-myc and 6xHis tags) (scFv, VH of scFv D7 as printed; linker of the HuscI library between VH and VL; VL of scFv D7; Selected from the human synthetic HuscI library; The scFv was moved as an NcoI-NotI fragment from pHEN-HuscI into pET-23NN, which adds c-myc and 6xHis at the 3' end; source: E. coli BL21(DE3)pLysS, pET-23NN vector, purified (Ni-NTA, dialysed in MilliQ water); not shown: c-myc, C-terminal, kept; His6, …) scFv: MAEVQLVESGGSLVKPGGSLRLSCAASGFTFSNYYMNWVRQAPGKGLEWISDIYGSSRYISYADFVKGRFTISRDNATNSLYLQMNSLRAEDTAVYYCVRSSSNDGGGMDVWGRGTLVTVSSGGGGSGGGGSGGGGSQSVLTQPASVSGSPGQSITISCAGTSSDVGGNNYVSWYQQHPGKAPKLMIYYDSYRPSGVSNRFSGSKSGNTASLTISGLQAEDEADYYCSSYTYSSTRVFGGGTKLAVLG | – | binds |
